These are yes or no findings as the source states them, for the method shown. Some entries that bind do so weakly or less than the wild type.
What was measured:
[1] = molecular target: C-terminal truncated DOCK5 (DOCK5^ΔC, residues 1-1642) (human) (UniProt Q9H7D0); test: cryo-EM structure; DOCK5^ΔC/ELMO1^FL/Rac1^G15A (0.9 μM) mixed with RhoG^Q61L (15 μM), cross-linked with 1 mM BS3, SEC; 20 mM HEPES-NaOH pH 8.0, 300 mM NaCl, 1 mM TCEP, 0.06% digitonin; both purified
[2] = molecular target: human full-length DOCK5 (DOCK5^FL, residues 1-1870) (human) (UniProt Q9H7D0); test: cryo-EM structure; DOCK5^FL/ELMO1^FL cross-linked with 1 mM BS3 (also a not cross-linked sample at 7.3 Å); 20 mM HEPES-NaOH pH 8.0, 300 mM NaCl, 1 mM TCEP, 0.06% digitonin; both purified

- binding [1]: binds
- binding [2]: binds
Substance: human full-length ELMO1 (ELMO1^FL, residues 1-727) (from UniProt Q92556 1-727)

— PMC11267001
